This is a selection; strong and weak results do not stand in their true shares. Calls are pooled over several reports, among them a noisy single-well screen. The list shows a part of the results.
Columns and labels:
Details in all cases: stereoisomer not certain
OR6C2 (Homo sapiens) = biological target: T1, OR6C2 (Homo sapiens) (UniProt Q9NZP2)
T1 sequence (whole entry): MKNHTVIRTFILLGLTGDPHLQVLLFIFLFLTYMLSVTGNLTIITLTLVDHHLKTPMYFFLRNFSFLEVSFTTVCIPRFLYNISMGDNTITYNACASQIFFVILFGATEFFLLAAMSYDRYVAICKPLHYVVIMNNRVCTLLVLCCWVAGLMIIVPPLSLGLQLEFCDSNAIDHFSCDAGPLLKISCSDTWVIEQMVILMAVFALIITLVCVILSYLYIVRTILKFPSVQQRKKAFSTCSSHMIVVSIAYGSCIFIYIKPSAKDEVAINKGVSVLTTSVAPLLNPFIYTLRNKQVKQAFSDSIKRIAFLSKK
Outline: (§1)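 Transient luciferase assays in mammalian cell lines were common, though methods varied by source. The values come from published papers and their supplementary material, with extra details from the original authors when needed. Responsive refers to a measured signal the original authors judged statistically different from baseline, and non-responsive (inactive) to the remainder.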

OR6C3 (Homo sapiens) = biological target: T2, OR6C3 (Homo sapiens) (UniProt Q9NZP0)
T2 sequence (whole entry): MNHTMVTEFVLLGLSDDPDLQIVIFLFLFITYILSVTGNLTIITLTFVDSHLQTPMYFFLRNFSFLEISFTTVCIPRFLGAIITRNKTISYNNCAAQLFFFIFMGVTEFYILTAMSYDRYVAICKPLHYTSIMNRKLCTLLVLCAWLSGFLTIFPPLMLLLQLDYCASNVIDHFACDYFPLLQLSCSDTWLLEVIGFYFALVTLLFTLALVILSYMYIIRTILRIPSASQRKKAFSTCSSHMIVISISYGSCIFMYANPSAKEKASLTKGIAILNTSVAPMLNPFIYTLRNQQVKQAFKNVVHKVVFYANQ
Outline: as §1

OR6C4 = tested on: T3, OR6C4
T3 sequence (whole entry): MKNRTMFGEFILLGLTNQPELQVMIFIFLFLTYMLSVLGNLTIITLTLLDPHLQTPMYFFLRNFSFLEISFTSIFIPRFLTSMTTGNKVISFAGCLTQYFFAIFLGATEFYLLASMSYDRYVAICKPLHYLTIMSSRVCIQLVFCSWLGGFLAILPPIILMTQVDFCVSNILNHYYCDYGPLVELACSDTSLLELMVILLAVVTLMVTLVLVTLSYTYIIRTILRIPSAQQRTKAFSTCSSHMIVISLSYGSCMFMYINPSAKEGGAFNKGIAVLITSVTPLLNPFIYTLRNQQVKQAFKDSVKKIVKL
Outline: as §1

OR6C6 (Homo sapiens) = biological target: T4, OR6C6 (Homo sapiens) (UniProt A6NF89)
T4 sequence (whole entry): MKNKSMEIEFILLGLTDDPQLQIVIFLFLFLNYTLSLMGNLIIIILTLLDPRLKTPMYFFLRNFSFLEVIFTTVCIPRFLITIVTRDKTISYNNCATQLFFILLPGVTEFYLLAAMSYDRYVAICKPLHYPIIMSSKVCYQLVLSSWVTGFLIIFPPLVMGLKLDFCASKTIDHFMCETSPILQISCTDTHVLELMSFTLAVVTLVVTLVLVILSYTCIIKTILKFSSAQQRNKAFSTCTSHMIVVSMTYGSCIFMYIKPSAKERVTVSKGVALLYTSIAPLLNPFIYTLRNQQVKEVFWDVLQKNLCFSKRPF
Outline: as §1

OR6C65 (Homo sapiens) = biological target: T5, OR6C65 (Homo sapiens) (UniProt A6NJZ3)
T5 sequence (whole entry): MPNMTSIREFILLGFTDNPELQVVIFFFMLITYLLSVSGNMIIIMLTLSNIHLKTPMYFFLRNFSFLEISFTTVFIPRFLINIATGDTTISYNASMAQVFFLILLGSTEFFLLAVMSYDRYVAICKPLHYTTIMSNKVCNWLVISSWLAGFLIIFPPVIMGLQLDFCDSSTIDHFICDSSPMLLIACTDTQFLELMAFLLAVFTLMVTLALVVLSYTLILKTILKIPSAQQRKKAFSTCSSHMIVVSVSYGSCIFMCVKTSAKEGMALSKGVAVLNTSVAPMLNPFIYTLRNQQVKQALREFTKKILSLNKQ
Outline: as §1

OR6C74 (Homo sapiens) = biological target: T6, OR6C74 (Homo sapiens) (UniProt A6NCV1)
T6 sequence (whole entry): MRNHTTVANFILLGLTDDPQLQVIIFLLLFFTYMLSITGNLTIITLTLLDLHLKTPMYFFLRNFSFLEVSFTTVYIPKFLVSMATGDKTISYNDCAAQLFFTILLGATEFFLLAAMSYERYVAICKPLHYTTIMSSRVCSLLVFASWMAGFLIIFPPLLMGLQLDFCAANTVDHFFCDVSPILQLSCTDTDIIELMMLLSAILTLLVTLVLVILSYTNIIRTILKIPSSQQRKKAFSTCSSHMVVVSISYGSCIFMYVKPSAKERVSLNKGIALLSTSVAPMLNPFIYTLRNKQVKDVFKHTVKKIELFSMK
Outline: as §1

OR6C75 (Homo sapiens) = biological target: T7, OR6C75 (Homo sapiens) (UniProt A6NL08)
T7 sequence (whole entry): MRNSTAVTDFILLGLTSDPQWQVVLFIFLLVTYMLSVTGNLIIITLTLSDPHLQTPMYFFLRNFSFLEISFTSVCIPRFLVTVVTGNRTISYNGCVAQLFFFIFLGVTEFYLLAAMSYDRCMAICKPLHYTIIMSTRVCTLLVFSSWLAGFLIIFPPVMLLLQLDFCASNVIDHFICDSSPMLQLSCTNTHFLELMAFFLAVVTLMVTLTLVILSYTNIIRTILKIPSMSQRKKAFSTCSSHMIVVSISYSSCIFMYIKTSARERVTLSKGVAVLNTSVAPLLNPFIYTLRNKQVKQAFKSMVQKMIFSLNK
Outline: as §1

OR6C76 (Homo sapiens) = biological target: T8, OR6C76 (Homo sapiens) (UniProt A6NM76)
T8 sequence (whole entry): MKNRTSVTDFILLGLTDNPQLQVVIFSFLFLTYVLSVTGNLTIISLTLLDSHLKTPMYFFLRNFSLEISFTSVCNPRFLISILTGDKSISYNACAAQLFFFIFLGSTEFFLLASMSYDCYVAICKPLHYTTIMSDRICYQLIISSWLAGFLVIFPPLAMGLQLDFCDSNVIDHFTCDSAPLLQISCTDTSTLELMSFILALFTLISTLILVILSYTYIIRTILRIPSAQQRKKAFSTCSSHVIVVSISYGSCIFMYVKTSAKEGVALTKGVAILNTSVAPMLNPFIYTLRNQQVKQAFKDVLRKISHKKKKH
Outline: as §1

OR6F1 (Homo sapiens) = biological target: T9, OR6F1 (Homo sapiens) (UniProt Q8NGZ6)
T9 sequence (whole entry): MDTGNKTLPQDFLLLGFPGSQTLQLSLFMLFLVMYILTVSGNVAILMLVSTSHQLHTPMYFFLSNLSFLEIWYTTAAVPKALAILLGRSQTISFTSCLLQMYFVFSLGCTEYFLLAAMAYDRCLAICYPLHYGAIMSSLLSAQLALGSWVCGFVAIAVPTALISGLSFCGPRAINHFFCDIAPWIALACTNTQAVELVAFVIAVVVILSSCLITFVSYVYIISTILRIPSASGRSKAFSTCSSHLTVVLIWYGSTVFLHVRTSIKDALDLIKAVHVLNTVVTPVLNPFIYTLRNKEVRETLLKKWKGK
Outline: as §1

OR6J1 = tested on: T10, OR6J1
T10 sequence (whole entry): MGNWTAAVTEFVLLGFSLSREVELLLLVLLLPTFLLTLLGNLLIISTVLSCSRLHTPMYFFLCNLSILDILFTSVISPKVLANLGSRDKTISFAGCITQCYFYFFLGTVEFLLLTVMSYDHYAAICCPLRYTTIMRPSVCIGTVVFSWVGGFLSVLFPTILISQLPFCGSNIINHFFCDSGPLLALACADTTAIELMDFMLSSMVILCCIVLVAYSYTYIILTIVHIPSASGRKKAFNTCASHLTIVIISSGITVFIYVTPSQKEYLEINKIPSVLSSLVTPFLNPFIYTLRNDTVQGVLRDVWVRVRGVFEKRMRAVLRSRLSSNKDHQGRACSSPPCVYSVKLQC
Outline: as §1

Measured: odorant receptor agonist call;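 note: active if original authors judged signal statistically different from baseline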

CCCCOC(C)=O
inactive: all assays above
